Assay results taken from patent publication US20240000751A1, “STABLE ORAL FORMULATION CONTAINING 1-(3-CYANO-1-ISOPROPYL-INDOL-5-YL)PYRAZOLE-4-CARBOXYLIC ACID” (LG CHEM, LTD., priority 2020, published 2024).
Some entries share one result that the patent states for a list of compounds.

Assay: Stability of API and 1:1 API/excipient mixtures stored under accelerated conditions, residual assay of API by HPLC
Format: physicochemical
Conditions: stored under accelerated conditions (40° C., 75% RH), 3 months
Experimental: As disclosed in Table 1 below, after preparing a mixture by mixing API, 1-(3-cyano-1-isopropyl-indol-5-yl)pyrazol-4-carboxylic acid, with various types of excipients such as microcrystalline cellulose, the residual assay of API at the initial stage and after 1 month, 2 months, and 3 months storage, respectively, under accelerated conditions (40° C., 75% RH; relative humidity) were measured through the analysis method and process described below.
• HPLC analysis conditions are as follows: • Column: Inertsil ODS-2 (4.6×150 mm, 5 μm, GL Science) • Detector: 254 nm, UV • Flow Rate: […] • Injection Volume: […] • Column Temperature: 40° C. • Eluent • A: Acetonitril/Purified water/TFA(Trifluoroacetic acid)=40/60/0.1(v/v/v) • B: Acetonitril/Purified water/TFA=80/20/0.1(v/v/v)

Q: With `CC(C)n1cc(C#N)c2cc(-n3cc(C(=O)O)cn3)ccc21` [Comparative Example 1, 1-(3-cyano-1-isopropyl-indol-5-yl)pyrazol-4-carboxylic acid] as the compound, how does the stability in words read?
A: The stability in words was “excellent stability”.
